# Measurements reported in PubChem BioAssay AID540276 (National Center for Advancing Translational Sciences (NCATS), 2011).
# Hit rate of the full screen: of about 300,000 compounds, about 5,400 (1.8%) were called active. Inconclusive results, whose numbers are uncertain, are shown with a selection of clear calls. Calls come from the whole dose curve; tested in HEK293 cells. A potency beside an inconclusive call is a rough fit, not a confirmed value. A structure can be active in one record and inactive in another. Residues, ends and D or L forms follow the SMILES beside them. *: point of attachment. Cbz = O=C(OCc1ccccc1)*
# Assay: qHTS for inhibitors of binding or entry into cells for Marburg Virus
# Conditions: Marburg virus pseudotyped entry inhibition, cell reporter; activity change, negative = inhibition: at 37.8 µM (top of the series) unless noted
# % is set by controls: 0 for no effect and ±100 for the full control effect; potency is the fitted concentration of half-maximal effect.
SMILES,"activity change, negative = inhibition",Potency
Cn1c(SCC(=O)N2CCN(c3ccccc3)CC2)nnc1-c1ccccc1,inactive: -28.1%,–
O=C(NNC(=O)C1CCN(Cc2ccc(F)cc2Cl)CC1)Nc1ccc([N+](=O)[O-])cc1,inactive: -2.56%,–
COc1ccc(-c2nn3c(-c4ccccc4C)nnc3c3ccccc23)cc1,inactive: 9.23% [at 46.1 µM],–
Cc1cc(/C=C2\C(=N)N3N=CSC3=NC2=O)c(C)n1Cc1ccccc1,–,"inconclusive: 11.2 µM [inhibitor, partial curve, poor fit]"
CCOC(=O)c1cnc2c(C#N)cnn2c1N,inactive: 20.6% [at 46.1 µM],–
CC(=O)n1nc(-c2cccc(C)c2)nc1SCC(=O)Nc1ccccc1,inactive: -2.38%,–
CC1=C(C(=O)OC(C)(C)C)C(c2ccc3ccccc3c2)NC(=O)N1C (stereo unspecified),–,"inconclusive: 31.6 µM [inhibitor, single point]"
S=C(NNc1nc(Nc2ccccc2)nc(N2CCCCC2)n1)NC1CCCCC1,–,active: 10 µM
C=C(C(C)=O)C(O)C=Cc1ccco1 (stereo unspecified),inactive: 3% [at 14.2 µM],–
COc1ccc(C(=O)OC(C)CN2CCN(C)CC2)cc1 (stereo unspecified),–,"inconclusive: 20 µM [activator, single point]"
CC(=O)Nc1ccc(/C(C)=N/NC(=O)C2CC2c2ccccc2)cc1 (stereo unspecified),inactive: 3.45%,–
COc1cccc(/C=C/C(=O)Nc2ccc3nc(N4CCN(C)CC4)cc(C)c3c2)c1OC,–,"inconclusive: 3.98 µM [inhibitor, full curve]"
Cc1ccc(O)c(NC(=O)c2cc3nc4c(c(C(F)(F)F)n3n2)CCc2ccccc2-4)c1,inactive: 3.91%,–
O=c1[nH]c(=O)n(-c2ccc(Cl)cc2)c(O)c1C=Nc1ccc(S(=O)(=O)Nc2nccs2)cc1,–,"inconclusive: 10 µM [activator, partial curve]"
Clc1ccc(-c2cc(C3CCNCC3)[nH]n2)cc1,–,"inconclusive: 12.6 µM [inhibitor, partial curve, poor fit]"
Cc1cc2c(c(=O)n1C)C(C(C)C)C(C#N)=C(N)O2 (stereo unspecified),–,"inconclusive: 35.5 µM [activator, single point]"
Oc1ccccc1-c1nc(/C=C/c2ccc(F)cc2)nn1-c1ccccc1,inactive: 17% [at 46.1 µM],–
CCc1ccccc1N1CC(c2nc3ccccc3n2CCCCOc2ccccc2)CC1=O (stereo unspecified),–,"inconclusive: 10 µM [inhibitor, partial curve, poor fit]"
Cc1ccc(C)c(NC(=O)CSc2nnc(CCCCCNC(=O)OC(C)(C)C)o2)c1,inactive: -3.2%,–
Cc1cc(C)nc(/N=C(\N)Nc2ccc(S(=O)(=O)O)cc2)n1,inactive: 9.02% [at 46.1 µM],–
O=C(Nc1ccc(N2CCOCC2)cc1)c1ccc(Br)o1,–,"inconclusive: 1 µM [activator, partial curve, poor fit]"
CC(C)C(NC(=O)C(Cc1ccccc1)NC(=O)OCc1ccccc1)C(=O)O (stereo not drawn) (Cbz-Phe-Val-OH; configuration not given here),–,"inconclusive: 7.08 µM [activator, partial curve]"
CCOC(=O)c1ccc2ncc3c(-c4ccccc4)nn(-c4ccc(F)c(Cl)c4)c3c2c1,inactive: 4.61% [at 46.1 µM],–

# A second format for part of the listing above:
SMILES | activity change, negative = inhibition | Potency
Cc1cc(/C=C2\C(=N)N3N=CSC3=NC2=O)c(C)n1Cc1ccccc1 | – | inconclusive: 11.2 µM [inhibitor, partial curve, poor fit]
CCOC(=O)c1cnc2c(C#N)cnn2c1N | inactive: 20.6% [at 46.1 µM] | –
CC(=O)n1nc(-c2cccc(C)c2)nc1SCC(=O)Nc1ccccc1 | inactive: -2.38% | –
CC1=C(C(=O)OC(C)(C)C)C(c2ccc3ccccc3c2)NC(=O)N1C (stereo unspecified) | – | inconclusive: 31.6 µM [inhibitor, single point]
S=C(NNc1nc(Nc2ccccc2)nc(N2CCCCC2)n1)NC1CCCCC1 | – | active: 10 µM
C=C(C(C)=O)C(O)C=Cc1ccco1 (stereo unspecified) | inactive: 3% [at 14.2 µM] | –
COc1ccc(C(=O)OC(C)CN2CCN(C)CC2)cc1 (stereo unspecified) | – | inconclusive: 20 µM [activator, single point]
CC(=O)Nc1ccc(/C(C)=N/NC(=O)C2CC2c2ccccc2)cc1 (stereo unspecified) | inactive: 3.45% | –
COc1cccc(/C=C/C(=O)Nc2ccc3nc(N4CCN(C)CC4)cc(C)c3c2)c1OC | – | inconclusive: 3.98 µM [inhibitor, full curve]

# Later entries.

SMILES,"activity change, negative = inhibition",Potency
CCOC(=O)c1cnn(-c2cc(C)nc3c(-c4ccccc4)cnn23)c1N,–,"inconclusive: 10 µM [activator, partial curve, poor fit]"
Cc1ccsc1C(=O)C1CCCN(Cc2cc(F)ccc2-n2cccn2)C1 (stereo unspecified),–,"inconclusive: 12.6 µM [inhibitor, partial curve, poor fit]"
O=C1c2ccccc2N2C(=O)c3ccccc3[C@H]2N1c1ccccc1,inactive: -17.3%,–
CC1(C)CC(=O)C(C(C2=C(O)CC(C)(C)CC2=O)c2ccc(Br)s2)C(=O)C1 (stereo unspecified),–,"inconclusive: 14.1 µM [inhibitor, single point]"
CCOC(=O)Nc1ccc2c(c1)Nc1ccccc1S2,–,"inconclusive: 14.6 µM [inhibitor, partial curve, poor fit]"
COc1ccc(C2C(C#N)=C(N)N(c3ccccc3)C3=C2C(=O)CCC3)cc1Cn1cc([N+](=O)[O-])cn1 (stereo unspecified),–,"inconclusive: 11.2 µM [inhibitor, single point]"
CC(=O)N1CCN(c2ccc(NC(=O)c3ccco3)cc2)CC1,–,"inconclusive: 2.24 µM [activator, full curve]"
FC(F)(F)c1cccc(NC(=S)N2CCN(c3cccc(C(F)(F)F)c3)CC2)c1,–,"inconclusive: 0.794 µM [inhibitor, partial curve, poor fit]"
COc1ccc2cc(C(=O)C3CCCN(C(=O)CCc4ccccn4)C3)ccc2c1 (stereo unspecified),inactive: 8.15% [at 46.1 µM],–
COc1ccc2[nH]c(=O)c(CN(Cc3cccs3)S(=O)(=O)c3cccc4nsnc34)cc2c1,–,active: 16.4 µM
COc1ccc(S(=O)(=O)NCC2CCC(C(=O)NCC(OC)OC)CC2)cc1 (stereo unspecified),–,"inconclusive: 35.5 µM [activator, partial curve, poor fit]"
COc1ccc(CC(=O)N/N=C(\C)CC(=O)Nc2ccc(N(C)C)cc2)cc1,inactive: 2.01% [at 46.1 µM],–
CCOC(=O)C1CCCN(c2cc(C)nc3cc(-c4ccc(F)cc4)nn23)C1 (stereo unspecified),–,"inconclusive: 29.1 µM [inhibitor, single point]"
Cc1occc1C(=O)Nc1nccs1,inactive: 2.58%,–
Cc1ccc(S(=O)(=O)n2ccc3c2CCCC3=O)cc1,inactive: 1.12% [at 46.1 µM],–
COc1cc(-c2nc3nc(C)cc(C)n3c2Nc2ccc(Cl)cc2)ccc1O,inactive: -8.28% [at 46.1 µM],–
Fc1ccc(Nc2nc3ccccc3s2)cc1,–,"inconclusive: 6.31 µM [activator, single point]"
O=C(N1CCOCC1)N1CCC(n2nnc3cc(F)ccc32)CC1,–,"inconclusive: 0.206 µM [inhibitor, full curve, poor fit]"
O/N=C/c1cn(-c2ccccc2)nn1,–,"inconclusive: 6.31 µM [activator, single point]"
COc1ccc(-c2csc(NC(=O)C3CCN(C(=O)c4ccc(F)cc4)CC3)n2)cc1OC,–,"inconclusive: 35.5 µM [inhibitor, single point]"
Cc1ccc(C)c(S(=O)(=O)N2CCN(C(C(=O)Nc3ccc(F)cc3)c3ccccc3)CC2)c1 (stereo unspecified),–,"inconclusive: 20 µM [inhibitor, single point]"
CCOC(=O)C1(Cc2ccc(OC)cc2)CCN(C(=O)CC2CCC(=O)N2)CC1 (stereo unspecified),inactive: 15.2%,–
COC[C@H]1OC(=O)c2coc3c2[C@@]1(C)C1=C(C3=O)[C@H]2CCC(=O)[C@@]2(C)C[C@H]1OC(C)=O,–,active: 0.0447 µM
